Article PMC4858745
These are yes or no findings as the source states them, for the method shown. Binding seen in cells or lysates may run through a third protein. Binding can be weak; no strength is given.

Protein sequences, listed by entry. Tags and fused reporters are not part of them. Lines headed by an entry give the natural chain unless they say otherwise; changes in a name come on top. Residues count along the entry.
UniProt Q2TB54: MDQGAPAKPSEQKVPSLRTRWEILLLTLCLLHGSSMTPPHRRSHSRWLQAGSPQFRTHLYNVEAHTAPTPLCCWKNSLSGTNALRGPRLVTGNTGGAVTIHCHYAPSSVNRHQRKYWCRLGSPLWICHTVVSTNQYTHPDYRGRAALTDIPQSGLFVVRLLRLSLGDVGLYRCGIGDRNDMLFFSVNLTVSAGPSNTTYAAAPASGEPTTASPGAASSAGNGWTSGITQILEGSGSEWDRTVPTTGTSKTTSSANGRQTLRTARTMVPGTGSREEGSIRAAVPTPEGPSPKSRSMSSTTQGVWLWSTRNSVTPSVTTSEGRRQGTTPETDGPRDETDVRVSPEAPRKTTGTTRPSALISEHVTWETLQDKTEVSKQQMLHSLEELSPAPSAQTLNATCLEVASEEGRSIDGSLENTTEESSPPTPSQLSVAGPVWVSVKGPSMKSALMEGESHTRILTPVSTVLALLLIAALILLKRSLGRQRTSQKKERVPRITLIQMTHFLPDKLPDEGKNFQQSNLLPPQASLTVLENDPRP
UniProt Q9QUK6, residues 26-835: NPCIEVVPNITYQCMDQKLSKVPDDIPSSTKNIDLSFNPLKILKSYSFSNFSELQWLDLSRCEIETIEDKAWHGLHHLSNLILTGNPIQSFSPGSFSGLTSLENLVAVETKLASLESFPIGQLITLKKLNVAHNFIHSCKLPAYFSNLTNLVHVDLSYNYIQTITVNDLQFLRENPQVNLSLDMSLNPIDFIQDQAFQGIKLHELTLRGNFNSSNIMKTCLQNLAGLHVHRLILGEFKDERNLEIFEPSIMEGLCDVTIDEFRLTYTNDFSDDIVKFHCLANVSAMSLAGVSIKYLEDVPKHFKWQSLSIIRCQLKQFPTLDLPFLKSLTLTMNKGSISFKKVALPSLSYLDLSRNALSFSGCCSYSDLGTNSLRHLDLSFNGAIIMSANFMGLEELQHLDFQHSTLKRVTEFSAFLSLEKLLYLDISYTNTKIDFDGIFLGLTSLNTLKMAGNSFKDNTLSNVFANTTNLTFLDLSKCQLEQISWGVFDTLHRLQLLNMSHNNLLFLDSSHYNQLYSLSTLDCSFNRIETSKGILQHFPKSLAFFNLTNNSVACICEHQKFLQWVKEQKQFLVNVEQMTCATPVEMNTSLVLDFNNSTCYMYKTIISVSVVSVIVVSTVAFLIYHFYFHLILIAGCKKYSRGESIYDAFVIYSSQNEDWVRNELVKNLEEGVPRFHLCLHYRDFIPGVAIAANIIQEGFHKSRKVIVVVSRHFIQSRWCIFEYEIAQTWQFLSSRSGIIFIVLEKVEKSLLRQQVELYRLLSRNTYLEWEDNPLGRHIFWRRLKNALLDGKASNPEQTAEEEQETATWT

Target: HA-tagged Fcα/μR lacking the immunoglobulin-like domain (UniProt Q2TB54)
Assay: co-IP; Ba/F3 transfectants lysed in 1% digitonin, 0.12% Triton X-100, 150 mM NaCl, 20 mM triethanolamine; IP anti-HA and blot anti-Flag by the legend (the methods say IP anti-Flag, blot anti-HA); with or without LPS stimulation

- binding: binds
Substance: Flag-tagged TLR4 (from UniProt Q9QUK6 26-835) (receptor)
